Results deposited as PubChem BioAssay AID1259405 (NCATS, 2018).

Assay: 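Mouse-designed siRNAs used to find CHO productivity engineering targets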 (primary screen)
System: Chinese hamster CHO-K1 ovary cells with stable secreted eGFP expression
Reagent: single siRNA against mouse genes, 0.8 pmol siRNA per well (2 µl of 400 nM stock)
Duration: 3 days
Detection: 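Percent of the per-plate non-targeting control median for intracellular GFP per well by laser scanning cytometry and for cell viability by ATP luminescence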
Direction: GFP, % of control: higher = more GFP per well, higher productivity; viability (ATP), % of control: higher = more viable cells (more ATP)
Hit rule: 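Called active when intracellular GFP, relative to negative control, is at or above 120%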
The whole screen tested about 50,000 reagents; this is a part drawn at random. In the full data, about 4,000 (8%) are marked active. 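Mouse siRNA library applied to hamster cells; one well for each siRNA.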 Entries without a mark were called inactive. Reagents against one gene are numbered here.

Tefm (GeneID 68550) #1: GFP, % of control = 157 (active); viability (ATP), % of control = 116
Tefm (GeneID 68550) #2: GFP, % of control = 22.1; viability (ATP), % of control = 47.2
Tefm (GeneID 68550) #3: GFP, % of control = 51.1; viability (ATP), % of control = 64
Prr36 (GeneID 73072) #1: GFP, % of control = 67.2; viability (ATP), % of control = 80.9
Prr36 (GeneID 73072) #2: GFP, % of control = 80.8; viability (ATP), % of control = 79.3
Prr36 (GeneID 73072) #3: GFP, % of control = 56.7; viability (ATP), % of control = 61.8
1700084J12Rik (GeneID 73486) #1: GFP, % of control = 81.4; viability (ATP), % of control = 53.4
1700084J12Rik (GeneID 73486) #2: GFP, % of control = 143 (active); viability (ATP), % of control = 79.2
1700084J12Rik (GeneID 73486) #3: GFP, % of control = 93.5; viability (ATP), % of control = 79.4
Fbxo8 (GeneID 50753) #1: GFP, % of control = 86.9; viability (ATP), % of control = 86.9
Fbxo8 (GeneID 50753) #2: GFP, % of control = 66.3; viability (ATP), % of control = 64
Fbxo8 (GeneID 50753) #3: GFP, % of control = 34.2; viability (ATP), % of control = 44.2
Mmp7 (GeneID 17393) #1: GFP, % of control = 118; viability (ATP), % of control = 140
Mmp7 (GeneID 17393) #2: GFP, % of control = 71.8; viability (ATP), % of control = 74
Tmem40 (GeneID 94346) #1: GFP, % of control = 59.4; viability (ATP), % of control = 65.3
Tmem40 (GeneID 94346) #2: GFP, % of control = 90.9; viability (ATP), % of control = 73.3
Tmem40 (GeneID 94346) #3: GFP, % of control = 85.8; viability (ATP), % of control = 93.8

2 entries already listed, arranged by “viability (ATP), % of control”, ascending:
Tmem40 (GeneID 94346) #1: GFP, % of control = 59.4; viability (ATP), % of control = 65.3
Mmp7 (GeneID 17393) #2: GFP, % of control = 71.8; viability (ATP), % of control = 74
